No constants are given. Whether binding was seen depends on the method and setting. Binding can be weak; no strength is given.

By UniProt entry, the sequences of proteins in these tests, tags left out. Where a name states a change or a piece, a line headed by the entry shows the natural chain unless it says otherwise.
UniProt Q00987: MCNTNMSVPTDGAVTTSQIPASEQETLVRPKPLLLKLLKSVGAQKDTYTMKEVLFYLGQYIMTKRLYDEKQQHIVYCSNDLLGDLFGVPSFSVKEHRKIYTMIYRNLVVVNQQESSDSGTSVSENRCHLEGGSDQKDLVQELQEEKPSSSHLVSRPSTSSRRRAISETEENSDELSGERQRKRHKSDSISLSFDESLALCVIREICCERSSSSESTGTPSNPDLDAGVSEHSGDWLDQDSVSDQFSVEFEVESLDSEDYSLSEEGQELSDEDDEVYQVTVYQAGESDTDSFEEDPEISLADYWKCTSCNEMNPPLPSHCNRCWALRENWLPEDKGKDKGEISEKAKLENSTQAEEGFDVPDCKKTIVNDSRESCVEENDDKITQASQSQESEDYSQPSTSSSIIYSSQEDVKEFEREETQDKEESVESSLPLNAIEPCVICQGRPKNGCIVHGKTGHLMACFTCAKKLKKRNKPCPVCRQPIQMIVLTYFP

The assay deals with T1, Human Dlk2 extracellular domain (Dlk2EC, residues 1-306) (human) (UniProt Q6UY11).
T1 sequence: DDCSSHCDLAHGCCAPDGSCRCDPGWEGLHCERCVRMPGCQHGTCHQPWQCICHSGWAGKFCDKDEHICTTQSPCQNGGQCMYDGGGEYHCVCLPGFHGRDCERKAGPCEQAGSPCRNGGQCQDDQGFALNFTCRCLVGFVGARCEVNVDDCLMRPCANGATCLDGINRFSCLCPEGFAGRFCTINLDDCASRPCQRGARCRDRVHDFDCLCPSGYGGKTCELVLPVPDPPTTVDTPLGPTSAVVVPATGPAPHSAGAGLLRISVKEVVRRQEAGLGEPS
The experiment in a line: SPR. In general terms: In SPR one partner is held on a chip, and binding of the other changes the refractive index at the surface.
Take “Human Mdm2 C-ter (residues 334-491) (from UniProt Q00987-11) (domain or fragment)”: the binding result is given as “no binding (tested: 200 nM)”. “Human Mdm2 N-ter (residues 1-134) (from UniProt Q00987) (domain or fragment)”: the binding result is given as “binds”. “Human Mdm2 central domain (residues 134-334) (from UniProt Q00987) (domain or fragment)”: the binding result is recorded as “binds”.

The values above are taken from publication doi:10.1101/2023.07.20.549453 (bioRxiv, 2023).
